PubChem BioAssay AID504804 | Drosophila RNAi Screening Center, 2011

Purpose: 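Fly genes whose loss lessens doxorubicin-driven cell death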 (primary screen)
System: Drosophila Kc cells
Knock-down reagent: long dsRNA against Drosophila genes, 0.5 µg dsRNA per well
Time to read-out: 96 h (48 h knock-down, then 48 h drug)
Treatment: doxorubicin 5 µg/ml for 48 h, added 48 h after dsRNA
Read-out: 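Viability measured as cellular ATP by luminescence after 48 h knock-down then 48 h doxorubicin at 5 µg/ml; unnormalised plate counts for each replicate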
Direction: raw ATP luminescence: higher = more viable cells, protection from doxorubicin
Active means: 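z-score of 2 or more over plate mean in both duplicates, retained only when retests and separate dsRNAs confirm the protection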
In all, the deposit lists about 19,000 reagents; shown is an unselected part of those that have a named target and a result. In the full data, 47 (0.25%) got an active call. 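Signals are raw, not normalised; exact z-scores behind calls not deposited; actives needed confirmation, so some wells reaching 2 SD are inactive.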 Reagents against one gene are numbered here.

target gene	reagent	raw ATP luminescence, replicate 1	raw ATP luminescence, replicate 2	activity call
CG13716	1	1.00e5	95417	inactive
CG11854	1	64310	66760	inactive
CG7841	1	45833	33410	inactive
CG14244	1	36080	44740	inactive
Brd7-9	1	1.02e5	64957	inactive
CG11454	1	1.02e5	81270	inactive
lbe	1	40720	46860	inactive
stw	1	47770	46580	inactive
stw	2	63363	49647	inactive
Jon44E	1	32993	81367	inactive
ATPsynbetaL	1	73940	54387	inactive
tna	1	1.39e5	1.61e5	inactive
tna	2	67903	67943	inactive

The list goes on; the last 5 above are carried over.
target gene	reagent	raw ATP luminescence, replicate 1	raw ATP luminescence, replicate 2	activity call
stw	2	63363	49647	inactive
Jon44E	1	32993	81367	inactive
ATPsynbetaL	1	73940	54387	inactive
tna	1	1.39e5	1.61e5	inactive
tna	2	67903	67943	inactive
Ccdc58	1	27537	21300	inactive
Npc2b	1	1.10e5	76240	inactive
mop	1	22417	20943	inactive
ND-MLRQ	1	1.43e5	51663	inactive
CG41099	1	3.61e5	3.15e5	inactive
CG41099	2	3.31e5	2.23e5	inactive
CG4554	1	59400	70643	inactive
Arpc4	1	17770	19727	inactive
Rop	1	37763	40820	inactive
slif	1	21793	19703	inactive
CG3520	1	56157	55587	inactive
CG30432	1	86667	91763	inactive
CG15036	1	47410	53230	inactive
CG32445	1	60897	62920	inactive
CG3306	1	34600	33647	inactive
Prdm13	1	69583	99773	inactive
CG10185	1	70830	82180	inactive
SKIP	1	69920	99850	inactive
SKIP	2	48820	65710	inactive
SKIP	3	60890	53730	inactive
SKIP	4	61897	45070	inactive
SKIP	5	58140	73730	inactive
